{"sequences": {"note": "Chains of the proteins cited; added tags and fusions are not shown.", "UniProt P03372": "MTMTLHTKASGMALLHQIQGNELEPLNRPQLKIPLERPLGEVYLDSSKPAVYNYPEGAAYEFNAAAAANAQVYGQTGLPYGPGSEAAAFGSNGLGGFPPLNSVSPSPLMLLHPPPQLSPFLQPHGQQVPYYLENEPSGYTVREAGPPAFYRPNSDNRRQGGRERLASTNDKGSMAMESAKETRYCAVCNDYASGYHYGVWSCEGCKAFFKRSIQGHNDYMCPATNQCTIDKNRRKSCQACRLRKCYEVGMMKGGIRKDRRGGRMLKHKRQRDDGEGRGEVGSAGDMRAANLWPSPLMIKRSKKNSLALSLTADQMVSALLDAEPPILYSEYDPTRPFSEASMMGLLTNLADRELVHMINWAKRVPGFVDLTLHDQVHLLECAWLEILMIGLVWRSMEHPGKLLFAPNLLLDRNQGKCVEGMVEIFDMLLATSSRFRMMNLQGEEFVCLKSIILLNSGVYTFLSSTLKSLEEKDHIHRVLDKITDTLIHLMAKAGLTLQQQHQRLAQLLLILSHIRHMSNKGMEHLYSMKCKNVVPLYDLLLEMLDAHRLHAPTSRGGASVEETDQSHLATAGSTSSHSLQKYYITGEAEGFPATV"}, "source": "paper PMC6177406", "binders": {"B1": {"name": "GFP-Aurora-A (protein, UniProt O14965 1-403)", "chain": "MDRSKENCISGPVKATAPVGGPKRVLVTQQFPCQNPLPVNSGQAQRVLCPSNSSQRIPLQAQKLVSSHKPVQNQKQKQLQATSVPHPVSRPLNNTQKSKQPLPSAPENNPEEELASKQKNEESKKRQWALEDFEIGRPLGKGKFGNVYLAREKQSKFILALKVLFKAQLEKAGVEHQLRREVEIQSHLRHPNILRLYGYFHDATRVYLILEYAPLGTVYRELQKLSKFDEQRTATYITELANALSYCHSKRVIHRDIKPENLLLGSAGELKIADFGWSVHAPSSRRTTLCGTLDYLPPEMIEGRMHDEKVDLWSLGVLCYEFLVGKPPFEANTYQETYKRISRVEFTFPDFVTEGARDLISRLLKHNPSQRPMLREVLEHPWITANSSKPSNCQNKESASKQS"}}, "key": {"FLAG-LEM4 (human)": {"biological_target": "T1, FLAG-LEM4 (human) (UniProt Q86XL3)", "T1 sequence": "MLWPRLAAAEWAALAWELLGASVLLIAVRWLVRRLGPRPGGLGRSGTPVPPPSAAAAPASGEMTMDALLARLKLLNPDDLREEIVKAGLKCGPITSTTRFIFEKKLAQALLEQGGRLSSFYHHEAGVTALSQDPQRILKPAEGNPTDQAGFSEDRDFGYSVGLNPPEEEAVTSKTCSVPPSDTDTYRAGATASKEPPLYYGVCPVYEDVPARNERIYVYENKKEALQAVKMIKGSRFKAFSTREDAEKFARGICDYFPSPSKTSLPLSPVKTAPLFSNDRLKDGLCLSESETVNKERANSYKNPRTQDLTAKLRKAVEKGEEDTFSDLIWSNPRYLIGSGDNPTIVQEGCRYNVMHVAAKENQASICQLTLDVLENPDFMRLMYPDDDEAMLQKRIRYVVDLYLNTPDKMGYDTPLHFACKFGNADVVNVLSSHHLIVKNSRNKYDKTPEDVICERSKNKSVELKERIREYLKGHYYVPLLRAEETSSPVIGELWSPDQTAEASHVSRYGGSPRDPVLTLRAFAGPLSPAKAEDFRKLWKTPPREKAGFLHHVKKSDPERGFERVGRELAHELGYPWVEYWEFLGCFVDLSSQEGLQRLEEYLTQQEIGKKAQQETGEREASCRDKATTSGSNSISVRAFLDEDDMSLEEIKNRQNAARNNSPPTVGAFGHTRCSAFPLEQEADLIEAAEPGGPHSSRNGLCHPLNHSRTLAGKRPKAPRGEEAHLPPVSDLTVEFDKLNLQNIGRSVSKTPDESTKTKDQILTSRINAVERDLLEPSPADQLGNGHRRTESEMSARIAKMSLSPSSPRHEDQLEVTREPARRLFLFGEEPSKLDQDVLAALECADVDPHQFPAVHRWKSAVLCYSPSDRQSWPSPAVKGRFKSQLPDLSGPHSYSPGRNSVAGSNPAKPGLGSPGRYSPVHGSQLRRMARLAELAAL", "test": "co-IP; HEK293T cells co-transfected with a FLAG-tagged and a GFP-tagged protein; lysate precipitated with anti-FLAG affinity gel, immunoblot with anti-GFP antibody; for FLAG-ERα and GFP-Aurora-A in LEM4-depleted HEK293T-shLEM4 cells"}, "FLAG-ERα (human)": {"biological_target": "FLAG-ERα (human) (UniProt P03372)", "test": "co-IP; HEK293T cells co-transfected with a FLAG-tagged and a GFP-tagged protein; lysate precipitated with anti-FLAG affinity gel, immunoblot with anti-GFP antibody; for FLAG-ERα and GFP-Aurora-A in LEM4-depleted HEK293T-shLEM4 cells"}}, "note": "These are yes or no findings as the source states them, for the method shown. In cells and extracts the contact can be indirect. Some entries that bind do so weakly or less than the wild type. Where a sequence is shown, tags or fusion partners need not be part of it.", "data": [{"binder": "B1", "values": [{"measurement": "binding", "setting": "FLAG-LEM4 (human)", "value": "binds"}, {"measurement": "binding", "setting": "FLAG-ERα (human)", "value": "binds"}]}]}
